The list is a part of this screen's results and no random one: it is rich in T/C values a quarter to a half above the control, in often repeated tests (any T/C) and in doses without a T/C. Other doses and runs of a compound stand elsewhere. T/C: endpoint of the treated group in % of that of the vehicle group. Some doses have a count of surviving animals in place of a T/C: the source files T/C as zero there, which appears to mark a toxic dose or a test without result, not a measured value. Some survivor counts are full or nearly so, which does not show that the dose was tolerated: the source hardly ever lists a survival T/C far under the control, and the zero likely stands for such cases as well. Survivors were counted at the toxicity check, usually on the fifth day, unless a day is given; later deaths do not show. Schedules are NCI's codes, read here as Q, the interval in days (D) or hours (H), X, the number of doses. Some entries were tested several times; the values are given in rising order. Where survival is the endpoint, the PubChem record calls one and a half times the control and up active, and a quarter to a half above the control has no call in these data; cut-offs in other NCI protocols can differ. Some T/C values carry the count of animals alive at the toxicity check (mostly the fifth day); where none is given, no animal had died by that day. Starred links: 1 amine or outer side, 2 acyl side, 3 side chain; linkers in the order of their positions; H or OH if unused. Positions of bridges follow the written chain, without caps; N, C: chain ends. Non-standard residues stand in square brackets, D forms with d. Residues, ends and D or L forms follow the SMILES beside them. Chains are numbered I, II in the order given. Actinocin(9to1) = Cc1c2oc3c(C)ccc(C(=O)[*:1])c3nc-2c(C(=O)[*:2])c(N)c1=O; aThr = C[C@H](O)[C@H](N)C(=O)O; NMeV = CN[C@H](C(=O)O)C(C)C; Sar = CNCC(=O)O
Test system: BDF1 mice, P815 leukemia ip, survival T/C
Test: NCI In Vivo Anticancer Drug Screen. Data for tumor model P815 Mast Cell Leukemia (Ascitic) (intraperitoneal) in B6D2F1 (BDF1) mice
Conditions: higher T/C = longer survival
Experimental: The antitumor activity of compounds was measured in mice bearing transplantable tumors. Survival or tumor size were measured and the results are expressed as the measurement made in the treated group (T) divided by the measurement made in the vehicle treated control group (C). The tumor model used in this assay is P815 Mast Cell Leukemia (Ascitic) (intraperitoneal) in B6D2F1 (BDF1) mice

[1] = T/C endpoint: survival time, mean or median, dose: 25.0 mg/kg/injection, schedule: Q01DX010 (ip), vehicle: saline
[2] = T/C endpoint: survival time, mean or median, dose: 5.0 mg/kg/injection, schedule: Q01DX010 (ip), vehicle: saline
[3] = T/C endpoint: survival time, mean or median, dose: 0.5 mg/kg/injection, schedule: Q01DX010 (ip), vehicle: other
[4] = T/C endpoint: survival time, mean or median, dose: 4.0 mg/kg/injection, schedule: Q01DX010 (ip), vehicle: other
[5] = T/C endpoint: survival time, mean or median, dose: 2.5 mg/kg/injection, schedule: Q01DX010 (ip), vehicle: saline
[6] = T/C endpoint: survival time, mean or median, dose: 16.0 mg/kg/injection, schedule: Q01DX010 (ip), vehicle: saline
[7] = T/C endpoint: survival time, mean or median, dose: 40.0 mg/kg/injection, schedule: Q01DX010 (ip), vehicle: saline

With `O=C(O)CCCc1ccc(N(CCCl)CCCl)cc1` the survivor count [1] was 0 of 6.
`Cc1c2oc3c(C)ccc(C(=O)N[C@@H]4C(=O)N[C@H](C(C)C)C(=O)N5CCC[C@H]5C(=O)N(C)CC(=O)N(C)[C@@H](C(C)C)C(=O)O[C@H]4C)c3nc-2c(C(=O)N[C@@H]2C(=O)N[C@H](C(C)C)C(=O)N3CCC[C@H]3C(=O)N(C)CC(=O)N(C)[C@@H](C(C)C)C(=O)O[C@H]2C)c(N)c1=O` (I: [aThr][dV]P[Sar][NMeV] / II: [aThr][dV]P[Sar][NMeV]; ester I:1-I:C, II:1-II:C; linker I:N-II:N via Actinocin(9to1)) was tested, and the T/C (T/C endpoint: median survival time, dose: 108.0 micrograms/kg/injection, schedule: Q04DX003 (ip), vehicle: saline + alcohol) was 131 % of control, the T/C (T/C endpoint: median survival time, dose: 216.0 micrograms/kg/injection, schedule: Q01DX001 (ip), vehicle: saline + alcohol) was 127 % of control and the T/C (T/C endpoint: median survival time, dose: 360.0 micrograms/kg/injection, schedule: Q01DX001 (ip), vehicle: saline + alcohol) was 127 % of control. The T/C (T/C endpoint: median survival time, dose: 600.0 micrograms/kg/injection, schedule: Q01DX001 (ip), vehicle: saline + alcohol) was 125 % of control and the survivor count (T/C endpoint: median survival time, dose: 1000.0 micrograms/kg/injection, schedule: Q01DX001 (ip), vehicle: saline + alcohol) was 5 of 8.
For `Nc1nc2n[nH]nc2c(=O)[nH]1`, the T/C (T/C endpoint: survival time, mean or median, dose: 25.0 mg/kg/injection, schedule: Q01DX010 (ip), vehicle: alkali diluted with saline) was 144 % of control, the T/C (T/C endpoint: survival time, mean or median, dose: 50.0 mg/kg/injection, schedule: Q01DX010 (ip), vehicle: alkali diluted with saline) was 144 % of control and the T/C (T/C endpoint: survival time, mean or median, dose: 100.0 mg/kg/injection, schedule: Q01DX010 (ip), vehicle: alkali diluted with saline) was 133 % of control. For the same molecule, the T/C (T/C endpoint: survival time, mean or median, dose: 200.0 mg/kg/injection, schedule: Q01DX010 (ip), vehicle: alkali diluted with saline) was 138 % of control.
`CN(C)c1ccc(Nc2c3ccccc3nc3ccccc23)cc1` was tested, and the T/C (T/C endpoint: survival time, mean or median, dose: 80.0 mg/kg/injection, schedule: Q01DX010 (ip), vehicle: saline) was 135 % of control and the survivor count (T/C endpoint: survival time, mean or median, dose: 120.0 mg/kg/injection, schedule: Q01DX010 (ip), vehicle: saline) was 5 of 6.
With `CCCSc1ncnc2nc[nH]c12` the survivor count (T/C endpoint: survival time, mean or median, dose: 250.0 mg/kg/injection, schedule: Q01DX010 (ip), vehicle: saline) was 0 of 6.
With `CSc1ncnc2nc[nH]c12` the survivor count (T/C endpoint: survival time, mean or median, dose: 400.0 mg/kg/injection, schedule: Q01DX010 (ip), vehicle: saline) was 4 of 6.
`O=c1[nH]cc(F)c(=O)[nH]1` was tested, and the T/C (T/C endpoint: median survival time, dose: 28.8 mg/kg/injection, schedule: Q04DX003 (ip), vehicle: saline) was 140 % of control, the T/C (T/C endpoint: median survival time, dose: 48.0 mg/kg/injection, schedule: Q04DX003 (ip), vehicle: saline) was 141 % of control and the T/C (T/C endpoint: survival time, mean or median, dose: 2.5 mg/kg/injection, schedule: Q01DX015 (ip), vehicle: carboxymethylcellulose (CMC)) was 130 % of control. The T/C [2] was 125 % of control and the T/C (T/C endpoint: survival time, mean or median, dose: 10.0 mg/kg/injection, schedule: Q01DX015 (ip), vehicle: carboxymethylcellulose (CMC)) was 142 % of control.
In the case of `O=C(Nc1ccc(C2=NCCCN2)cc1)c1ccc(C(=O)Nc2ccc(C3=NCCCN3)cc2)cc1`, the T/C [3] is reported as 100, 105, 108 % of control, the survivor count [3] is reported as 6 of 6 and the T/C (T/C endpoint: survival time, mean or median, dose: 1.0 mg/kg/injection, schedule: Q01DX010 (ip), vehicle: other) is reported as 113, 117, 118 [5 of 6 alive], 142 % of control. For the same molecule, the T/C (T/C endpoint: survival time, mean or median, dose: 2.0 mg/kg/injection, schedule: Q01DX010 (ip), vehicle: other) was 169 [5 of 6 alive], 173 [5 of 6 alive], 180, 207 % of control, the T/C [4] was 90 % of control [4 of 6 alive] and the survivor count [4] was 6 of 6. The survivor count (T/C endpoint: survival time, mean or median, dose: 8.0 mg/kg/injection, schedule: Q01DX010 (ip), vehicle: other) was 5 of 6 and 6 of 6.
In the case of `CCOC(N)=O`, the survivor count (T/C endpoint: survival time, mean or median, dose: 1000.0 mg/kg/injection, schedule: Q01DX010 (ip), vehicle: saline) is reported as 5 of 6 and 6 of 6.
For `CCCNc1ncnc2[nH]ncc12`, the survivor count [1] was 6 of 6.
With `Nc1cc(C(=O)Nc2ccc(C3=NCCN3)cc2)cc(C(=O)Nc2ccc(C3=NCCN3)cc2)c1` the survivor count (T/C endpoint: survival time, mean or median, dose: 128.0 mg/kg/injection, schedule: Q01DX010 (ip), vehicle: saline) was 2 of 6.
In the case of `Nc1nc(=S)c2[nH]cnc2[nH]1`, the T/C (T/C endpoint: survival time, mean or median, dose: 1.25 mg/kg/injection, schedule: Q01DX010 (ip), vehicle: saline) is reported as 127 and 140 % of control, the T/C [5] is reported as 127 % of control and the T/C [2] is reported as 140 % of control.
In the case of `CN(C)CC(=O)c1ccc(O)c(O)c1`, the survivor count (T/C endpoint: survival time, mean or median, dose: 675.0 mg/kg/injection, schedule: Q01DX010 (ip), vehicle: saline) is reported as 6 of 6.
For `C=CC(CN1CC1)OC(C)=O` (configuration not stated), the survivor count [6] was 5 of 6.
In the case of `Nc1nc(F)nc2c1ncn2C1OC(CO)C(O)C1O` (configuration not stated), the survivor count (T/C endpoint: survival time, mean or median, dose: 3.0 mg/kg/injection, schedule: Q01DX015 (ip), vehicle: saline) is reported as 10 of 10 and the survivor count (T/C endpoint: survival time, mean or median, dose: 6.0 mg/kg/injection, schedule: Q01DX015 (ip), vehicle: saline) is reported as 8 of 10.
For `C[C@@H]1C[C@@H]([C@H](O)CC2CC(=O)NC(=O)C2)C(=O)[C@@H](C)C1`, the T/C [7] was 131 % of control.
In the case of `CC[C@]1(O)C[C@H]2CN(CCc3c([nH]c4ccccc34)[C@@](C(=O)OC)(c3cc4c(cc3OC)N(C=O)[C@H]3[C@@](O)(C(=O)OC)[C@H](OC(C)=O)[C@]5(CC)C=CCN6CC[C@]43[C@@H]65)C2)C1`, the T/C (T/C endpoint: survival time, mean or median, dose: 0.15 mg/kg/injection, schedule: Q01DX015 (ip), vehicle: saline) is reported as 133 % of control, the survivor count (T/C endpoint: survival time, mean or median, dose: 0.5 mg/kg/injection, schedule: Q01DX015 (ip), vehicle: saline) is reported as 10 of 10 and the survivor count (T/C endpoint: survival time, mean or median, dose: 0.75 mg/kg/injection, schedule: Q01DX015 (ip), vehicle: saline) is reported as 10 of 10. The survivor count (T/C endpoint: survival time, mean or median, dose: 1.12 mg/kg/injection, schedule: Q01DX015 (ip), vehicle: saline) was 10 of 10, the T/C (T/C endpoint: survival time, mean or median, dose: 1.2 mg/kg/injection, schedule: Q01DX001 (ip), vehicle: saline) was 135 % of control and the T/C (T/C endpoint: survival time, mean or median, dose: 2.9 mg/kg/injection, schedule: Q01DX001 (ip), vehicle: saline) was 139 % of control. The survivor count (T/C endpoint: survival time, mean or median, dose: 6.5 mg/kg/injection, schedule: Q01DX001 (ip), vehicle: saline) was 8 of 10, the T/C (T/C endpoint: survival time, mean or median, dose: 38.0 micrograms/kg/injection, schedule: Q01DX015 (ip), vehicle: saline) was 137 % of control and the T/C (T/C endpoint: survival time, mean or median, dose: 50.0 micrograms/kg/injection, schedule: Q01DX015 (ip), vehicle: carboxymethylcellulose (CMC)) was 128 % of control. The T/C (T/C endpoint: survival time, mean or median, dose: 75.0 micrograms/kg/injection, schedule: Q01DX015 (ip), vehicle: saline) was 147 % of control.
In the case of `N=C(N)SCc1c2ccccc2c(CSC(=N)N)c2ccccc12`, the T/C [5] is reported as 140 % of control, the T/C [2] is reported as 125 % of control and the T/C (T/C endpoint: survival time, mean or median, dose: 20.0 mg/kg/injection, schedule: Q01DX010 (ip), vehicle: saline) is reported as 145 % of control.
With `Cn1c(N)nc2nc[nH]c2c1=S` the T/C [7] was 133 % of control.
`CCn1cnc2c(=S)nc[nH]c21` was tested, and the survivor count (T/C endpoint: survival time, mean or median, dose: 125.0 mg/kg/injection, schedule: Q01DX010 (ip), vehicle: saline) was 5 of 6 and 6 of 6.
In the case of `COc1cc(-c2ccc(Nc3ccccc3C(=O)O)c(OC)c2)ccc1Nc1ccccc1C(=O)O`, the T/C (T/C endpoint: survival time, mean or median, dose: 100.0 mg/kg/injection, schedule: Q01DX010 (ip), vehicle: saline) is reported as 132 % of control and the survivor count (T/C endpoint: survival time, mean or median, dose: 150.0 mg/kg/injection, schedule: Q01DX010 (ip), vehicle: saline) is reported as 5 of 6.
`O=C(Nc1ccc(C2=NCCN2)cc1)c1cccc(C(=O)Nc2ccc(C3=NCCN3)cc2)c1` was tested, and the T/C (T/C endpoint: survival time, mean or median, dose: 8.0 mg/kg/injection, schedule: Q01DX010 (ip), vehicle: saline) was 125 % of control and the T/C [6] was 126 and 141 % of control.
With `O=C(Nc1ccc(C2=NCCN2)cc1)c1ccc(NC(=O)c2ccc(C3=NCCN3)cc2)cc1` the T/C [7] was 137 % of control and the T/C (T/C endpoint: survival time, mean or median, dose: 60.0 mg/kg/injection, schedule: Q01DX010 (ip), vehicle: saline) was 137 % of control.
For `O=C(O)c1[nH]c(=O)[nH]c(=O)c1F`, the T/C (T/C endpoint: survival time, mean or median, dose: 6.0 mg/kg/injection, schedule: Q01DX015 (ip), vehicle: carboxymethylcellulose (CMC)) was 132 % of control, the survivor count (T/C endpoint: survival time, mean or median, dose: 25.0 mg/kg/injection, schedule: Q01DX015 (ip), vehicle: carboxymethylcellulose (CMC)) was 10 of 10 and the survivor count (T/C endpoint: survival time, mean or median, dose: 50.0 mg/kg/injection, schedule: Q01DX015 (ip), vehicle: carboxymethylcellulose (CMC)) was 10 of 10.
With `O=C(Nc1ccc(C2=NCCN2)cc1)c1cc(C(=O)Nc2ccc(C3=NCCN3)cc2)cc([N+](=O)[O-])c1` the survivor count (T/C endpoint: survival time, mean or median, dose: 512.0 mg/kg/injection, schedule: Q01DX010 (ip), vehicle: saline) was 6 of 6.
